{"source": "paper PMC5429092", "key": {"[1]": {"biological_target": "biotinylated human PPP1R15A^533-624 (AviTag-PPP1R15A 533-624-MBP) (human) (UniProt O75807)", "assay": "BLI; as a1 but with Sephin1 [50 µM] added before exposure to PP1 and present during the binding phase; both purified"}, "[2]": {"biological_target": "biotinylated human PPP1R15A^(533-624)F592A (human) (UniProt O75807)", "assay": "BLI; biotinylated PPP1R15A^533-624 (wild type or mutant) immobilised on streptavidin sensor; PP1 [40 nM] in solution; HEPES buffer, 25 °C, 600 rpm; fit 'association then dissociation'; both purified"}, "[3]": {"biological_target": "biotinylated human PPP1R15A^(533-624)V556E (human) (UniProt O75807)", "assay": "BLI; biotinylated PPP1R15A^533-624 (wild type or mutant) immobilised on streptavidin sensor; PP1 [40 nM] in solution; HEPES buffer, 25 °C, 600 rpm; fit 'association then dissociation'; both purified"}, "[4]": {"biological_target": "biotinylated human PPP1R15A^(533-624)W582A (human) (UniProt O75807)", "assay": "BLI; biotinylated PPP1R15A^533-624 (wild type or mutant) immobilised on streptavidin sensor; PP1 [40 nM] in solution; HEPES buffer, 25 °C, 600 rpm; fit 'association then dissociation'; both purified"}, "[5]": {"biological_target": "biotinylated human PPP1R15A^(533-624)R578A (human) (UniProt O75807)", "assay": "BLI; biotinylated PPP1R15A^533-624 (wild type or mutant) immobilised on streptavidin sensor; PP1 [40 nM] in solution; HEPES buffer, 25 °C, 600 rpm; fit 'association then dissociation'; both purified"}}, "note": "No constants are given. Whether binding was seen depends on the method and setting. Some results given as binding are weak or reduced against the parent protein; the word gives no strength."}
{"substance": "PP1 (PP1G 1–323, full-length PP1 phosphatase catalytic subunit) (from UniProt P63087 1-323) (enzyme)", "values": [{"measurement": "binding", "setting": "[1]", "value": "binds"}, {"measurement": "binding", "setting": "[2]", "value": "binds"}, {"measurement": "binding", "setting": "[3]", "value": "no binding (tested: PP1 [40 nM])"}, {"measurement": "binding", "setting": "[4]", "value": "binds"}, {"measurement": "binding", "setting": "[5]", "value": "binds"}]}
